# For at least one compound, name, drawing or mass did not settle the structure.
# Experiment: elution of the drug from coated stents in physiological solution (UV absorbance)
# Format: physicochemical
# Details: stent with polymer of allylamine deposited by cold plasma compared with state-of-the-art polymer stent, absorbance at 264.4 nm, FIG. 2
# Procedure: Next, the stents were immersed in test tubes containing 1 cc of physiological solution and the rate of elution of the drug was measured by acquiring the visible UV spectrum using a Unicam 8700 spectrophotometer and reading off the absorbance at 261 nm. The correlation between absorbance and concentration was established by measuring the absorbance of solutions of known concentration (calibration curve). The drug elution measurements were carried out at fixed time intervals and the physiological solution was changed at each measurement.
# 10 mg of dexamethasone were dissolved in 1 cc of ethanol and applied as described previously. The elution curves were again measured as described in example 1 and the absorbance at 264.4 nm was read off.
smiles,measurement,value
C[C@@H]1C[C@H]2[C@@H]3CCC4=CC(=O)C=C[C@]4(C)[C@@]3(F)[C@@H](O)C[C@]2(C)[C@@]1(O)C(=O)CO [dexamethasone],elution of the drug,notable reduction in the mechanism of elution
